Measurements reported in paper PMC3126750.
Results are given in words; binding and its absence hold for the method and conditions named. Where a sequence is shown, tags or fusion partners need not be part of it.

Molecular target: T1, Rpn1^(391 to 642) fused to Gal4-DBD (S. cerevisiae) (UniProt P38764)
T1 sequence: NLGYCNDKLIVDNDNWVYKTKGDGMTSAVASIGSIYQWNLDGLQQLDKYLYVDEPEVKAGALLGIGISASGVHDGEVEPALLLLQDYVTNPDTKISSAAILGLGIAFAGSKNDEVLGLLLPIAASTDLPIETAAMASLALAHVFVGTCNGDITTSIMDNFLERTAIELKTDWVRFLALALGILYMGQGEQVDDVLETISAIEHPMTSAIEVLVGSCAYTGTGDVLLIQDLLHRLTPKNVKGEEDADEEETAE
Assay: two-hybrid; reporter strain MaV203; Gal4-DBD fused to Rpn1 391-642 and Gal4-AD fusions; interaction indicated by growth on 100 mM 3-AT and lack of growth on 0.2% 5FOA

binding: no binding
Substance: Gal4-AD fused to Ddi1ΔUBL (S. cerevisiae) (domain or fragment)
